The test system of this test is CD2F1 mice, L1210 leukemia ip, survival T/C. Briefly: NCI In Vivo Anticancer Drug Screen. Data for tumor model L1210 Leukemia (intraperitoneal) in CD2F1 (CDF1) mice. Particulars: T/C endpoint: mean survival time, higher T/C = longer survival. An outline of the steps: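 Mice carrying a transplanted tumor received test compound or vehicle alone. The value is the measurement in the treated group divided by that in the vehicle-treated control group.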

Molecules are shown by their SMILES. The list shows only some results of the screen, not a fair sample: it gathers tests that were run many times, whatever their T/C, doses with no T/C, and many T/C values between a quarter and a half above the control. Further doses and runs are listed elsewhere. T/C gives the treated animals as a percentage of the vehicle group. Some doses have a count of surviving animals in place of a T/C: the source holds a T/C of zero for them, seemingly a mark for toxic or unscored doses. Some survivor counts are full or nearly so, which does not show that the dose was tolerated: the source hardly ever lists a survival T/C far under the control, and the zero likely stands for such cases as well. Survivors were counted at the toxicity check, usually on the fifth day, unless a day is given; later deaths do not show. Schedules are NCI's codes, read here as Q, the interval in days (D) or hours (H), X, the number of doses. Some entries hold several experiments; their values stand side by side, smallest first. Where survival is the endpoint, this PubChem deposit counts one and a half times the control or more as active, and values a quarter to a half above the control carry no call in these data; other NCI protocols may use other cut-offs.

As for `CN(C)N=Nc1ccc([N+](=O)[O-])cc1`, the T/C (dose: 266.0 mg/kg/injection, schedule: Q01DX009 (ip), vehicle: Klucel (hydroxypropylcellulose) (HPC)) is 125 % of control. In addition, the survivor count (dose: 400.0 mg/kg/injection, schedule: Q01DX009 (ip), vehicle: Klucel (hydroxypropylcellulose) (HPC)) was 5 of 6 and 6 of 6. On to `CC(C)(C)OC(=O)NC(CCCCNC(=O)C(F)(F)F)C(=O)ON1C(=O)CCC1=O` (stereo not drawn), for which the survivor count (dose: 200.0 mg/kg/injection, schedule: Q04DX003 (ip), vehicle: saline with Tween-80) is 6 of 6 and the survivor count (dose: 400.0 mg/kg/injection, schedule: Q04DX003 (ip), vehicle: saline with Tween-80) is on record as 2 of 6. Consider `CN1C(=O)CC(c2ccc(NC(=O)CI)cc2)C1=O` (stereo not drawn), for which the survivor count (dose: 25.0 mg/kg/injection, schedule: Q04DX002 (ip), vehicle: saline with Tween-80) is listed as 2 of 3.

Consider `COc1cc2ccc(/C=N/NC(N)=S)cc2cc1OC`, for which the survivor count (dose: 400.0 mg/kg/injection, schedule: Q01DX009 (ip), vehicle: water) is 2 of 6. In the case of `CCN(CC)CC(COC)Oc1cc(C)ccc1C(C)C` (stereo not drawn), the survivor count (dose: 400.0 mg/kg/injection, schedule: Q04DX003 (ip), vehicle: Klucel (hydroxypropylcellulose) (HPC)) was 6 of 6. Turning to `O=C(NC(=S)Nc1cc(Cl)ccc1Cl)c1cccc(Br)c1`, for the setting “dose: 200.0 mg/kg/injection, schedule: Q01DX009 (ip), vehicle: saline with Tween-80”, the T/C was 127 % of control.

The values above are taken from PubChem BioAssay AID256 (DTP/NCI, 2004).
